Measurements published in patent US20140009887A1, “FLUORINATED OXIRANES AS HEAT TRANSFER FLUIDS” (3M INNOVATIVE PROPERTIES COMPANY, priority 2011, published 2014).
Some of these results come from one statement about several compounds together.

Assay: Thermal stability: fluoride ion after heating in monel pressure vessel
Assay type: physicochemical
Details: 10 g in monel pressure vessel, 200° C. for 16 hours

FC(F)(F)N1C(F)(F)C(F)(F)OC(F)(F)C1(F)F [FC-3284, perfluoro-N-methylmorpholine]
Fluoride ion concentration after thermal aging: less than 0.2 ppmw
